Experimental data reported in publication PMC4005691.
These are yes or no findings as the source states them, for the method shown. In cells and extracts the contact can be indirect. Some binding calls cover weakened binding; strength is not graded here.

The chains behind the UniProt entries cited, without tags or fusion partners.
UniProt P12270: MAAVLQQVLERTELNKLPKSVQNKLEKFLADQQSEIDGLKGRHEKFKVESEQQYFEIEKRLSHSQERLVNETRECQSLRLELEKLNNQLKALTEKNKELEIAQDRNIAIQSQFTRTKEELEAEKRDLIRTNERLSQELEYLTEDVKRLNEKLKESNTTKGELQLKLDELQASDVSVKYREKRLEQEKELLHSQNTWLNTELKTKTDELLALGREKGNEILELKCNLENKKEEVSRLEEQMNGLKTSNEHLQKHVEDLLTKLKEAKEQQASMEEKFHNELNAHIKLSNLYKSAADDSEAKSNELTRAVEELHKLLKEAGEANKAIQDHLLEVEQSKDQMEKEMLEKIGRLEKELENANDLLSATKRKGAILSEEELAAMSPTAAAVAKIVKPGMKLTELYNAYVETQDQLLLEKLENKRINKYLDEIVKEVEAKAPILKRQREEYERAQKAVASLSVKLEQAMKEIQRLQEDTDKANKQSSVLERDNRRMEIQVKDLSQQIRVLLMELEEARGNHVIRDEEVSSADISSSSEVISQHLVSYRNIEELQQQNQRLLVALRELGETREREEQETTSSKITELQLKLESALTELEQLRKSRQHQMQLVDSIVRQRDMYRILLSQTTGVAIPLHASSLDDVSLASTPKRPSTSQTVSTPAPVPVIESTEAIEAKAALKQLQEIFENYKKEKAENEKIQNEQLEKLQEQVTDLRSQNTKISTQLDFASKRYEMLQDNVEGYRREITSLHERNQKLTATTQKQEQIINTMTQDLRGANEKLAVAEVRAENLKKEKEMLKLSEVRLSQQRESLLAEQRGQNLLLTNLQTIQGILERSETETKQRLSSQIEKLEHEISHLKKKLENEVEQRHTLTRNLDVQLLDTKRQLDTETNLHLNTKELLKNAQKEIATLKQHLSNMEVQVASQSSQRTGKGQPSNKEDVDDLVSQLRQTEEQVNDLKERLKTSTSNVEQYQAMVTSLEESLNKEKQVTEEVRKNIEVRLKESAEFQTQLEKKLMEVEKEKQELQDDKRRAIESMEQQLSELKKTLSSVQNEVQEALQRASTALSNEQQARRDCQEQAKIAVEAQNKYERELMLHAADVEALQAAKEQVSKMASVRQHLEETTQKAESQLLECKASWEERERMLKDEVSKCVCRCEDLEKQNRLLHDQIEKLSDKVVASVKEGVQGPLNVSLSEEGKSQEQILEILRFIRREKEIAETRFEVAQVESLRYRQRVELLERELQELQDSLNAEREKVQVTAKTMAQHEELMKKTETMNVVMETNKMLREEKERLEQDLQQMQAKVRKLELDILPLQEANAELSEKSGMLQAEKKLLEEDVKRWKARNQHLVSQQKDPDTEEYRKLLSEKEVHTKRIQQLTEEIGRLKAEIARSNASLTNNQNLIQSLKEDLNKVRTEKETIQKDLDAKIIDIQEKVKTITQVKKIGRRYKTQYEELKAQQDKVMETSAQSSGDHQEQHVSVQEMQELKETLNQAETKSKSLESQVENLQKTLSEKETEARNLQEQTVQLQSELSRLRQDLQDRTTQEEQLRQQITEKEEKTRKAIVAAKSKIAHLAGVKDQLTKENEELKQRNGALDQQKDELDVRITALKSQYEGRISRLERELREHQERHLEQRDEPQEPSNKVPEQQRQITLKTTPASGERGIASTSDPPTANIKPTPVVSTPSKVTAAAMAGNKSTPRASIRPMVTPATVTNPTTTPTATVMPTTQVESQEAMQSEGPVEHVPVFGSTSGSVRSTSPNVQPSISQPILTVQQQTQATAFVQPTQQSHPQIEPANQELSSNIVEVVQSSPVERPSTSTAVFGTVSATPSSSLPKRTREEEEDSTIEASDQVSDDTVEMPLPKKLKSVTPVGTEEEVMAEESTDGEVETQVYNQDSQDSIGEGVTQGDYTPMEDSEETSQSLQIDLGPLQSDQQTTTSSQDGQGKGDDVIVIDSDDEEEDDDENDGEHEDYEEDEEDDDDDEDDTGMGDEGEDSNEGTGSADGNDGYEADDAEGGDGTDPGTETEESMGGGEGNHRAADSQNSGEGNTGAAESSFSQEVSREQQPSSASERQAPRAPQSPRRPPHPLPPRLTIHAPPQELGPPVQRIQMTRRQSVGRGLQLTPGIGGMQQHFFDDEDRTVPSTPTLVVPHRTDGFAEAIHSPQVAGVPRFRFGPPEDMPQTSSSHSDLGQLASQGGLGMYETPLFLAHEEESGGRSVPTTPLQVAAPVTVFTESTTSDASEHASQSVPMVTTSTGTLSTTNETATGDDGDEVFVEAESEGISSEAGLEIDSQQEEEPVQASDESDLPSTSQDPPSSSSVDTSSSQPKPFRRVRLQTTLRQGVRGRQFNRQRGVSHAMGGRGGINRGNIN
UniProt O60318: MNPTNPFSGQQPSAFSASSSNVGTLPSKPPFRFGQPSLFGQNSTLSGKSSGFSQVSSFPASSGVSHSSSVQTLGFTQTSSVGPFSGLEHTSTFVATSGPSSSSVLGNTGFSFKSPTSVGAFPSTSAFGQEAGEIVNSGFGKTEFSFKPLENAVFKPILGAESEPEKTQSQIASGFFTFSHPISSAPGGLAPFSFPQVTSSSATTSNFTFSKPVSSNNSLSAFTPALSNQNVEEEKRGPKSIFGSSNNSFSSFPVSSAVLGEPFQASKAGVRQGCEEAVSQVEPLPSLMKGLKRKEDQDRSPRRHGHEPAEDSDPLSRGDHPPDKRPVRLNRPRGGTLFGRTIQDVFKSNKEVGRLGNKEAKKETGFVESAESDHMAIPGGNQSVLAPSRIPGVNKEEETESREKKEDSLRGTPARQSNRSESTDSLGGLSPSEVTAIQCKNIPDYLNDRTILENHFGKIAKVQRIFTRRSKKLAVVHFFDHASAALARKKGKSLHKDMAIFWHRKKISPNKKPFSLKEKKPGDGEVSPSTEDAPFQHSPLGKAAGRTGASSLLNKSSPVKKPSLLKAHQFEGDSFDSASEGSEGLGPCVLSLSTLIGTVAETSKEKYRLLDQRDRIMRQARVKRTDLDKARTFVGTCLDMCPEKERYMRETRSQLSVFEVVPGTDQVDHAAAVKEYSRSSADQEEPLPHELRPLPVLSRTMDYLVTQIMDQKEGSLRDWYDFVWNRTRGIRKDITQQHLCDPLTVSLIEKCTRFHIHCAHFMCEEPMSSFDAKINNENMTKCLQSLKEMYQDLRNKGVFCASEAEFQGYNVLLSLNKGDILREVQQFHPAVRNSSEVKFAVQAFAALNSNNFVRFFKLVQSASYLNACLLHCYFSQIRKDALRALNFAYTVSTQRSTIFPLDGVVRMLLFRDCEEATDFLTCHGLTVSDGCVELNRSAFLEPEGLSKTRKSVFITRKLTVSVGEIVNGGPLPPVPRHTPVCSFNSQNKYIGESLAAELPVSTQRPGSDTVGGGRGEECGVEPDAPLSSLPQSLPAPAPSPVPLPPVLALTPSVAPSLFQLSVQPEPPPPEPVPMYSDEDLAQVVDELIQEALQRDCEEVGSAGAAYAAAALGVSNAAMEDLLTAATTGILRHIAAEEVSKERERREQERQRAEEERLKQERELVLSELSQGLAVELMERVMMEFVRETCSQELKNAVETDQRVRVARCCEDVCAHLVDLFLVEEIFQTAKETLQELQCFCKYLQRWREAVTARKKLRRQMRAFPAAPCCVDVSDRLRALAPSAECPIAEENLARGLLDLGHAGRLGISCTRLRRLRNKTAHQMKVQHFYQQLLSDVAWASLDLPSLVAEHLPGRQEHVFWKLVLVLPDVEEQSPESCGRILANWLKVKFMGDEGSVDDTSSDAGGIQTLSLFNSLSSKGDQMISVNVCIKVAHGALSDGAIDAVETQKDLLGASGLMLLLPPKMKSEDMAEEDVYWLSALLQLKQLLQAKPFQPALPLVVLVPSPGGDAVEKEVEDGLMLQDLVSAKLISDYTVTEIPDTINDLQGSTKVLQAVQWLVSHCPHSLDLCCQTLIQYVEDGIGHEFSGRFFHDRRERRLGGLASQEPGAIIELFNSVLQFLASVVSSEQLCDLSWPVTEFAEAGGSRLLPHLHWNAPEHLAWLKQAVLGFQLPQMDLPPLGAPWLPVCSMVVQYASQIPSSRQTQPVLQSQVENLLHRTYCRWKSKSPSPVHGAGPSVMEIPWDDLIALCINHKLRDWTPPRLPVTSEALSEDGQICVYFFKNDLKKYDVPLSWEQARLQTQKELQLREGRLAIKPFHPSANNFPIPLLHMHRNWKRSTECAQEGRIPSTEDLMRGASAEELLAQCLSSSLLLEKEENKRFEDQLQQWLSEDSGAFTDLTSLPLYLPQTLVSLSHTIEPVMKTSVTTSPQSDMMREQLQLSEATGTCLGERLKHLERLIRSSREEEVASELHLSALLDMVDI

How the values were obtained:
[1] = target: TPR (human (endogenous in HCT116)) (UniProt P12270); assay: co-IP; endogenous proteins immunoprecipitated from nuclear extracts of HCT116 cells with antibodies against TPR or against GANP, blotted for GANP and TPR; GANP IP with or without RNase treatment
[2] = target: GANP (germinal-centre associated nuclear protein) (human (endogenous in HCT116)) (UniProt O60318); assay: as above

binding [1] | binding [2] | Substance
binds | – | GANP (germinal-centre associated nuclear protein) (from UniProt O60318 1-1980)
– | binds | TPR (from UniProt P12270 1-2363)
